Results on one substance are retold here after paper PMC12561351.

No constants are given. Whether binding was seen depends on the method and setting. In cells and extracts the contact can be indirect. Here binding means that the protein was enriched with, or labelled near, the bait; the list need not be complete.

This test concerns the target p62 (bait of the mass spectrometry analysis) (UniProt Q13501). The test is described as follows: affinity purification with mass spectrometry; mass spectrometry analysis of p62 interacting proteins following copper chelation; hits intersected with the E3 Ligases (NHLBI) and UbiBrowser datasets.

On to “SMURF2 (hit of the p62 mass spectrometry analysis) (from UniProt Q9HAU4 1-748) (enzyme)”, for which the binding result was “binds”.
